Reference: patent US7771761B2, “Cheese with calcium lactate crystal inhibitor” (Regents of The University of Minnesota, priority 2005, dated 2010)
Structures can show the parent of a compound that is named as a salt. Some entries repeat one wording, which the source may state once for all of them.

Experiment: Solubility model Example 4: visual inspection for crystals on sand paper in calcium lactate solution
Type: physicochemical
Settings: no visible crystals and minimal reduction in calcium and lactate content after 14 days at 7° C.
Protocol: Demineralized water (60° C.) was then added to the flask to obtain a final weight of 100 g and the flask was stirred to dissolve the calcium lactate powder. Subsequently a piece of 1.5×3 cm sand paper was added to the flask to provide a nucleation site for calcium lactate crystal formation and the flask was sealed with a rubber stopper.
After preparation a sample of each solution was collected.
Subsequently all solutions were stored at 7° C. for 14 days. After 14 days the flasks were visually inspected for the presence of crystals on the sand paper and the solutions were filtered at 7° C. through filter paper (Whatman 4; Whatman International Ltd., Maidstone, England).

Compound | qualification as CLC inhibitor in the model system
O=C(O)[C@H](O)[C@@H](O)[C@H](O[C@@H]1O[C@H](CO)[C@H](O)[C@H](O)[C@H]1O)[C@H](O)CO [Sodium lactobionate, lactobionic acid] | qualify as CLC inhibitors
O=C([O-])[C@H](O)[C@@H](O)[C@H](O)[C@H](O)CO.[Na+] [Sodium gluconate, sodium gluconate] | qualify as CLC inhibitors
O=C(O)CC(O)C(=O)O (stereo not drawn) [Sodium malate, malic acid disodium salt] | qualify as CLC inhibitors
